{"sequences": {"note": "Sequences of proteins named here, by UniProt entry; tags and fusion partners are left off.", "UniProt P40763": "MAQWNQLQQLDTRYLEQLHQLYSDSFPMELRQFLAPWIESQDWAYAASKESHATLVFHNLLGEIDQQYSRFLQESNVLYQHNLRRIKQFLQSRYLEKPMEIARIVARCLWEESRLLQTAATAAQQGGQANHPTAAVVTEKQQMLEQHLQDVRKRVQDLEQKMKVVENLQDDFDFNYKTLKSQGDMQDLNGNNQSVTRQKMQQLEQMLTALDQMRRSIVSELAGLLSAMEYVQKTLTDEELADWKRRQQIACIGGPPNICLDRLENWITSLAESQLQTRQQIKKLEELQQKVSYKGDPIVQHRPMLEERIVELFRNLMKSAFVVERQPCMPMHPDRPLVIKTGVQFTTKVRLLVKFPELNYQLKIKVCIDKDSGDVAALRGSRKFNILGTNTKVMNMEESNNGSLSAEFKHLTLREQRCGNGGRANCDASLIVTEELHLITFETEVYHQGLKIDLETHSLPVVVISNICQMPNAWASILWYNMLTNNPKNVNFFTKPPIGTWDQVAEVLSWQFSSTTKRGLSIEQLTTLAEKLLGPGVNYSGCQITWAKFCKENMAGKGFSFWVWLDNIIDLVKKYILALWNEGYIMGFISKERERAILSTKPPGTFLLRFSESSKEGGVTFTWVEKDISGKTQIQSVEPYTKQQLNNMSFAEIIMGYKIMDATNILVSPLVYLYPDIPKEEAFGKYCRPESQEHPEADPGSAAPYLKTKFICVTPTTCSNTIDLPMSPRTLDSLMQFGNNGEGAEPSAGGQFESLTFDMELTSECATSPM", "UniProt P67809": "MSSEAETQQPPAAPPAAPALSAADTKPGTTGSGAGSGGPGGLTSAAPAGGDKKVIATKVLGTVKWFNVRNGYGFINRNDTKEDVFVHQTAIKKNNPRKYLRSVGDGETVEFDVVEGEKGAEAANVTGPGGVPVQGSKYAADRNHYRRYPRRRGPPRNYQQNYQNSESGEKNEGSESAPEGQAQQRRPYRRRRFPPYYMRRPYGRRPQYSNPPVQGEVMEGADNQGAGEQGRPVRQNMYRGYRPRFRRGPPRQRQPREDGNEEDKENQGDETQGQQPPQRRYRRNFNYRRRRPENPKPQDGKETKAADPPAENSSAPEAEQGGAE"}, "source": "paper PMC10303830", "biological_target": "signal transducer and activator of transcription 3 (STAT3) (UniProt P40763)", "test": "co-IP; IP assay in cells with or without silencing of RP11-296E3.2; cell line, precipitating antibody and buffer not stated", "note": "These are yes or no findings as the source states them, for the method shown. Binding seen in cells or lysates may run through a third protein. Some entries that bind do so weakly or less than the wild type."}
{"substance": "Y-Box Binding Protein 1 (YBX1) (from UniProt P67809 1-324)", "values": [{"measurement": "binding", "value": "binds"}]}
